{
  "source": "paper PMC7819943",
  "about": "“Rice protein-binding microarrays: a tool to detect cis-acting elements near promoter regions in rice”",
  "note": "This is one part of the list.",
  "data": [
    {"target": "T1, OsSMF1 (Oryza sativa, UniProt Q6ZLB0 1-436)", "T1 sequence": "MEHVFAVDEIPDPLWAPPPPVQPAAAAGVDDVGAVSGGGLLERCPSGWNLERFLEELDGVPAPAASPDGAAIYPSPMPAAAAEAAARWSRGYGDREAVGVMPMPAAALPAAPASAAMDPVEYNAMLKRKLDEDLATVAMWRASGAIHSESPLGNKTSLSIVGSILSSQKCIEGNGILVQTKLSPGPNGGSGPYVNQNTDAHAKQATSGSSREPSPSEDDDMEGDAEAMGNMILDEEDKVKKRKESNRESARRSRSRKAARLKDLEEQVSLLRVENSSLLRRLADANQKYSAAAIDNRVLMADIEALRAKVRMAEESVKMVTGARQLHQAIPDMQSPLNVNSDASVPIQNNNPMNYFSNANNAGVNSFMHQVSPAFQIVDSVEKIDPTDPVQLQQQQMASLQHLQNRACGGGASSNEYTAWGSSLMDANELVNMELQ", "experiment": "protein-binding microarray (RPBM); PBS, 2% BSA, 51.3 ng/ul salmon testes DNA, 50 uM zinc acetate, 200 nM TF, 25 C, 1 h; high values mean tight binding", "details": "protein: recombinant; tags: N-terminal polyhistidine and DsRed monomer fusion (pET32a); chain copies: 2; label: CyDye5-dUTP incorporated in the synthesized complementary strand; 3' TTTTT single-stranded linker to array surface; dsDNA, one strand shown", "in_short": "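Transcription factors, each fused N-terminally to a polyhistidine tag and DsRed, were expressed in E. coli BL21-CodonPlus and purified on Ni–NTA. A custom Agilent array was made double-stranded by primer extension with Cy5-dUTP and blocked with 2% BSA. It was incubated with 200 nM protein in PBS, 2% BSA, salmon testes DNA and 50 µM zinc acetate at 25 °C for 1 h, then washed. The binding signal is per-feature fluorescence intensity (arbitrary units) read on an Axon 4000B scanner.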", "values": [
      {"sequence": "GTGCGTGCAGCGTGGCCGACGGCCGACACGTGGGACGCGGCGGAGTCACCTAGTGCAG", "binding signal": "9970 fluorescence intensity (a.u.)"},
      {"sequence": "CAATCTAATGGATTTGAAGCGATATGACACTTTAATCCTGCGGAGTCACCTAGTGCAG", "binding signal": "3880 fluorescence intensity (a.u.)"},
      {"sequence": "CGCATCCACCATTCCATTCACCATTCCACCCCTCGCCCGCCGGAGTCACCTAGTGCAG", "binding signal": "23600 fluorescence intensity (a.u.)"},
      {"sequence": "AACTAAAGCGAAAGCGCGTCGCTTTGCTTTGTCATGTCGGCGGAGTCACCTAGTGCAG", "binding signal": "3930 fluorescence intensity (a.u.)"},
      {"sequence": "GAATGCGCACGTGGCTGGTACAACGACGTGGGGCCTGGCGCGGAGTCACCTAGTGCAG", "binding signal": "11400 fluorescence intensity (a.u.)"},
      {"sequence": "TTTACCTTGTAGAGGTCATCAAACTCTAATCGTACCTGAACGGAGTCACCTAGTGCAG", "binding signal": "6180 fluorescence intensity (a.u.)"},
      {"sequence": "CATGCAAGCTTACTCACTTTCCCTCTTGCAGTGTGTTCTCCGGAGTCACCTAGTGCAG", "binding signal": "3500 fluorescence intensity (a.u.)"},
      {"sequence": "GTCAGATCTTTAGACCGCCACGTTGACAACAGTTAGATAGCGGAGTCACCTAGTGCAG", "binding signal": "6760 fluorescence intensity (a.u.)"},
      {"sequence": "TTTGTGGGTTTGGGGCTGACTAGATACAGTTGTCGTTTTGCGGAGTCACCTAGTGCAG", "binding signal": "6330 fluorescence intensity (a.u.)"},
      {"sequence": "AAATAAGCCTGGGGAACCTGACTTGTACAAGCAACCGGTACGGAGTCACCTAGTGCAG", "binding signal": "3610 fluorescence intensity (a.u.)"},
      {"sequence": "CACTCCAGAACCAAACGTTTGATGACTCTCTGCTTTTGCGCGGAGTCACCTAGTGCAG", "binding signal": "4570 fluorescence intensity (a.u.)"},
      {"sequence": "GATAGCTCTGCAGACTGCAGTTAGAGCTGAGTCAGAGTAACGGAGTCACCTAGTGCAG", "binding signal": "7270 fluorescence intensity (a.u.)"},
      {"sequence": "CGCGTGCACCACATCGCTTCCGGCCGCGCCAGTCACGCCCCGGAGTCACCTAGTGCAG", "binding signal": "3330 fluorescence intensity (a.u.)"},
      {"sequence": "GAAAAGTCTCCTAACTGTTCACATGCATGACTGTAAGTGACGGAGTCACCTAGTGCAG", "binding signal": "3820 fluorescence intensity (a.u.)"},
      {"sequence": "CCGCCGCCGAATCATCCGACTACCGTAGACGCTACGCATACGGAGTCACCTAGTGCAG", "binding signal": "3220 fluorescence intensity (a.u.)"},
      {"sequence": "GCGCATGACGCGGACACCTTGTTCACTTCCGAAGTGATACCGGAGTCACCTAGTGCAG", "binding signal": "8980 fluorescence intensity (a.u.)"},
      {"sequence": "TCTATCAGTTCAGAACTGCTATTACACGCCATGGGATCATCGGAGTCACCTAGTGCAG", "binding signal": "3580 fluorescence intensity (a.u.)"},
      {"sequence": "CGTAAGCGTCCGATCTGGCACGCATCGCATCGCCTGTCCCCGGAGTCACCTAGTGCAG", "binding signal": "5270 fluorescence intensity (a.u.)"},
      {"sequence": "TGCCACCCTCCTCCCCTCACCGGCACGTGTCCCCACCTCCCGGAGTCACCTAGTGCAG", "binding signal": "3800 fluorescence intensity (a.u.)"},
      {"sequence": "TAACTAAATGTACAAACAGACGAGTAATGACATGGAGGTTCGGAGTCACCTAGTGCAG", "binding signal": "3820 fluorescence intensity (a.u.)"},
      {"sequence": "GATCTGCAGATGCTAATAGTACATGACTCACTCAAATCAGCGGAGTCACCTAGTGCAG", "binding signal": "5040 fluorescence intensity (a.u.)"},
      {"sequence": "TCAATCGCCACGCGCGCTCACCGTCAGCTTTCTGCGGTCGCGGAGTCACCTAGTGCAG", "binding signal": "8310 fluorescence intensity (a.u.)"},
      {"sequence": "CAAAAGTTTTGACGTGTCACATCGGATATACGGACACACACGGAGTCACCTAGTGCAG", "binding signal": "10800 fluorescence intensity (a.u.)"}
    ]}
  ]
}
